Source: patent publication US4808701A (Hoffmann-La Roche Inc., priority 1987, dated 1989)

Test: general procedure: Boc solid-phase peptide synthesis; benzylhydrylamine (BHA) resin, styrene-1% divinylbenzene, 200-400 mesh (Beckman Instruments); symmetrical anhydrides of Boc-amino acids
Details: for cyclisation yield: cyclisation step; for step yield: late stage modification step

Substance “PEPTIDE1{[Tyr(SO3H)].M.G.W.E.[Thr(SO3H)].[NMePhe].[am]}$PEPTIDE1,PEPTIDE1,1:R1-5:R3$$$V2.0” has a cyclisation yield of 21% yield and a step yield of 94%.

“PEPTIDE1{[ac].[Tyr(SO3H)].K.G.W.M.D.[NMePhe].[am]}$PEPTIDE1,PEPTIDE1,3:R3-7:R3$$$V2.0” gave a cyclisation yield of 45% and a step yield of 87%.

In the case of “PEPTIDE1{[sY].M.E.W.M.[sT].[NMeF].[am]}$$$$V2.0”, the cyclisation yield is reported as 41% yield and the step yield is reported as 45%.

Some peptides are written in HELM: one residue between dots, names in brackets for other building blocks, links after the first $.
